Laboratory results: PubChem BioAssay AID504804 (Drosophila RNAi Screening Center, 2011)

Test: 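Knock-downs shielding fly cells from apoptosis caused by DNA damage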 (primary screen)
System: Drosophila Kc cells
Reagents: long dsRNA against Drosophila genes, 0.5 µg dsRNA per well
Time to read-out: 96 h (48 h knock-down, then 48 h drug)
Conditions: doxorubicin 5 µg/ml for 48 h, added 48 h after dsRNA
Measured: 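Luminescent ATP counts per replicate, not normalised, reflecting viable cells after 48 h dsRNA knock-down followed by 48 h of 5 µg/ml doxorubicin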
Direction: raw ATP luminescence: higher = more viable cells, protection from doxorubicin
Hit rule: 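z-score of 2 or more over plate mean in both duplicates, retained only when retests and separate dsRNAs confirm the protection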
The deposit covers about 19,000 reagents; shown is an unselected part of those that have a named target and a result. Over the whole deposit, 47 (0.25%) are marked active. 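Signals are raw, not normalised; exact z-scores behind calls not deposited; actives needed confirmation, so some wells reaching 2 SD are inactive.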 A number with no mark means an inactive call.

SC35 (SR family splicing factor SC35) [DRSC02502] | raw ATP luminescence, replicate 1 = 51100; raw ATP luminescence, replicate 2 = 63877
SC35 (SR family splicing factor SC35) [DRSC03425] | raw ATP luminescence, replicate 1 = 65467; raw ATP luminescence, replicate 2 = 65483
alphaTub67C (alpha-Tubulin at 67C) [DRSC11321] | raw ATP luminescence, replicate 1 = 69797; raw ATP luminescence, replicate 2 = 56323
spi (spitz) [DRSC03618] | raw ATP luminescence, replicate 1 = 64950; raw ATP luminescence, replicate 2 = 55450
Lip1 (Lipase 1) [DRSC03364] | raw ATP luminescence, replicate 1 = 39107; raw ATP luminescence, replicate 2 = 57030
CG16789 [DRSC15155] | raw ATP luminescence, replicate 1 = 58697; raw ATP luminescence, replicate 2 = 56310
CG30286 [DRSC04070] | raw ATP luminescence, replicate 1 = 66580; raw ATP luminescence, replicate 2 = 65037
hec (hector) [DRSC19895] | raw ATP luminescence, replicate 1 = 3.54e5; raw ATP luminescence, replicate 2 = 3.27e5
Cyp4s3 (Cytochrome P450 4s3) [DRSC20241] | raw ATP luminescence, replicate 1 = 3.44e5; raw ATP luminescence, replicate 2 = 3.65e5
Dred (Dctn1-related) [DRSC11057] | raw ATP luminescence, replicate 1 = 79753; raw ATP luminescence, replicate 2 = 75290
Dred (Dctn1-related) [DRSC11059] | raw ATP luminescence, replicate 1 = 1.91e5; raw ATP luminescence, replicate 2 = 2.15e5
zf30C (zinc finger protein 30C) [DRSC03641] | raw ATP luminescence, replicate 1 = 1.17e5; raw ATP luminescence, replicate 2 = 67950
Qsox3 (Quiescin sulfhydryl oxidase 3) [DRSC16096] | raw ATP luminescence, replicate 1 = 59880; raw ATP luminescence, replicate 2 = 72480
CG10445 [DRSC14247] | raw ATP luminescence, replicate 1 = 69187; raw ATP luminescence, replicate 2 = 59930
CG7139 [DRSC11611] | raw ATP luminescence, replicate 1 = 25517; raw ATP luminescence, replicate 2 = 20213
Ttc26 (Tetratricopeptide repeat domain 26) [DRSC15591] | raw ATP luminescence, replicate 1 = 1.70e5; raw ATP luminescence, replicate 2 = 2.02e5
CG11180 [DRSC06055] | raw ATP luminescence, replicate 1 = 57420; raw ATP luminescence, replicate 2 = 44860
CG4752 [DRSC04486] | raw ATP luminescence, replicate 1 = 21890; raw ATP luminescence, replicate 2 = 66707
papi [DRSC00693] | raw ATP luminescence, replicate 1 = 89197; raw ATP luminescence, replicate 2 = 78757
Tsp5D (Tetraspanin 5D) [DRSC18380] | raw ATP luminescence, replicate 1 = 54550; raw ATP luminescence, replicate 2 = 62090
tim (timeless) [DRSC00841] | raw ATP luminescence, replicate 1 = 96717; raw ATP luminescence, replicate 2 = 56700
CG9095 [DRSC20150] | raw ATP luminescence, replicate 1 = 3.09e5; raw ATP luminescence, replicate 2 = 2.76e5
CG5087 [DRSC10479] | raw ATP luminescence, replicate 1 = 74343; raw ATP luminescence, replicate 2 = 77963
CG10137 [DRSC02014] | raw ATP luminescence, replicate 1 = 77220; raw ATP luminescence, replicate 2 = 54313
CG10137 [DRSC02015] | raw ATP luminescence, replicate 1 = 63973; raw ATP luminescence, replicate 2 = 52833
Hakai [DRSC02031] | raw ATP luminescence, replicate 1 = 1.10e5; raw ATP luminescence, replicate 2 = 76193
CG2991 [DRSC00559] | raw ATP luminescence, replicate 1 = 1.18e5; raw ATP luminescence, replicate 2 = 82317
CG17329 [DRSC01926] | raw ATP luminescence, replicate 1 = 67950; raw ATP luminescence, replicate 2 = 80643

An excerpt from above, showing only “raw ATP luminescence, replicate 1”:
papi [DRSC00693]: 89197
Tsp5D (Tetraspanin 5D) [DRSC18380]: 54550
tim (timeless) [DRSC00841]: 96717
CG9095 [DRSC20150]: 3.09e5
